PubChem BioAssay AID1671195 | Yale University – 2021

Screen: 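Regulators of LDL receptor activity judged by labelled LDL uptake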 (primary screen)
Cell system: human Huh7 hepatoma cells
Reagent: siRNA pool against human genes, 18 nM
Time to read-out: about 2 to 2.5 days of knockdown, then 8 h LDL uptake
Conditions: DiI-labelled LDL at 30 µg/ml for 8 h, in lipoprotein-deficient serum medium
Detection: 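Per-cell DiI-LDL intensity by automated imaging; well means scaled to the plate median and given as a robust z-score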
Direction: robust z-score: higher = more LDL uptake after knockdown
Call rule: 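a gene counts as active if at least two replicate z-scores exceed ±2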
Shown is a random part of about 22,000 deposited reagents. In the full data, about 1,510 (6.9%) were called active. 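Active includes knockdowns raising or lowering LDL uptake; positive z-scores mean more uptake, negative mean less.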 Unmarked entries are inactive. The numbers tell different reagents against one gene apart.

| target gene | reagent | robust z-score, replicate 1 | robust z-score, replicate 2 | robust z-score, replicate 3 |
| --- | --- | --- | --- | --- |
| GRM5P1 (GRM5 pseudogene 1) | 1 | -0.392 | -0.126 | -0.595 |
| ENO2 (enolase 2) | 1 | 2.47 (active) | 0.978 | 1.96 |
| SLC9B1P2 | 1 | 0.842 | 0.998 | 0.8 |
| CORIN (corin, serine peptidase) | 1 | 0.712 | 0.953 | 1.08 |
| LOC442643 (retired record) | 1 | -1.05 | -1.3 | -1.73 |
| RPSAP49 (ribosomal protein SA pseudogene 49) | 1 | -0.444 | -0.245 | -0.0628 |
| SCN5A (sodium voltage-gated channel alpha subunit 5) | 1 | -0.573 | -0.59 | -0.407 |
| LOC442165 (retired record) | 1 | 0.331 | 0.1 | 0.0949 |
| AMBP (alpha-1-microglobulin/bikunin precursor) | 1 | 1.7 | 1.4 | 1.6 |
| AHI1 (Abelson helper integration site 1) | 1 | 0.36 | 2.74 | 1.74 |
| CCDC190 (coiled-coil domain containing 190) | 1 | 1.14 | 1.06 | 0.858 |
| PRMT1 (protein arginine methyltransferase 1) | 1 | 0.459 | -0.453 | 0.49 |
| MMP21 (matrix metallopeptidase 21) | 1 | -0.476 | -0.203 | 1.21 |
| ZNF273 (zinc finger protein 273) | 1 | 0.674 | 0.484 | 0.78 |
| ZNF736P2Y (zinc finger protein 736 pseudogene 2, Y-linked) | 1 | -0.212 | 0.0751 | -0.058 |
| LOC442121 (retired record) | 1 | -1.26 | -1.08 | -0.842 |
| CDR2 (cerebellar degeneration related protein 2) | 1 | -0.151 | -0.618 | 1.84 |
| SLC43A1 | 1 | -0.538 | -0.249 | -0.401 |
| DNM1P33 (dynamin 1 pseudogene 33) | 1 | -1.98 (active) | -2.1 | -2.2 |
| S1PR1 (sphingosine-1-phosphate receptor 1) | 1 | -0.966 | -0.541 | -0.301 |
| LOC441997 (retired record) | 1 | 0.175 | 0.0533 | -0.0771 |
| CACNG1 (calcium voltage-gated channel auxiliary subunit gamma 1) | 1 | 0.259 | -0.126 | -0.0177 |
| LOC441042 (retired record) | 1 | -0.458 | -1.25 | -0.778 |
| MLST8 (MTOR associated protein MLST8) | 1 | 0.437 | 0.984 | 0.594 |
| ZBTB5 (zinc finger and BTB domain containing 5) | 1 | -2.21 | -1.24 | 0.834 |
| SLPI (secretory leukocyte peptidase inhibitor) | 1 | -0.642 | 0.267 | -0.608 |
| TRIM7 (tripartite motif containing 7) | 1 | -0.239 | -1.73 | -1.09 |
| OR4D6 (olfactory receptor family 4 subfamily D member 6) | 1 | -0.347 | -0.556 | -0.551 |
| PVRIG (PVR related immunoglobulin domain containing) | 1 | 1.01 | 0.304 | 1.23 |
| ARHGAP6 (Rho GTPase activating protein 6) | 1 | -0.65 | -0.335 | -1.17 |
| ZNF525 (zinc finger protein 525) | 1 | -0.0785 | 0.184 | -0.256 |
| RAD51AP1 (RAD51 associated protein 1) | 1 | -0.276 | 0.965 | -0.756 |
| PRMT7 (protein arginine methyltransferase 7) | 1 | 0.65 | 1.09 | 1.2 |
| H2AC6 (H2A clustered histone 6) | 1 | -0.231 | 2.11 | -0.343 |
| LPAR2 (lysophosphatidic acid receptor 2) | 1 | -0.7 | -0.17 | -0.814 |
| FAM215A (family with sequence similarity 215 member A) | 1 | 0.793 | -1.63 | -0.753 |
| MRPL3 (mitochondrial ribosomal protein L3) | 1 | -2.14 (active) | -2.59 | -1.64 |
| YY2 (YY2 transcription factor) | 1 | 1.45 | 1.15 | 1.38 |
| BRWD3 (bromodomain and WD repeat domain containing 3) | 1 | 0.411 | 0.764 | 0.633 |
| CYBRD1 (cytochrome b reductase 1) | 1 | -0.0906 | -0.401 | -0.676 |
| CPA1 (carboxypeptidase A1) | 1 | 1.03 | 0.791 | 0.901 |
| GARIN5B (golgi associated RAB2 interactor family member 5B) | 1 | 1.53 | 1.17 | 1.46 |
| MOSPD1 (motile sperm domain containing 1) | 1 | -1.21 | -2.13 | 1.79 |
| LOC401861 (retired record) | 1 | -1.19 | -2.17 | -0.966 |
| MAT2B (methionine adenosyltransferase 2 non-catalytic beta subunit) | 1 | 1.32 | 1.59 | 0.978 |
| NOP58 (NOP58 ribonucleoprotein) | 1 | -1.34 | -1.26 | -1.47 |
| SLC28A1 | 1 | 1.33 | 1.3 | 1 |
| GPR139 (G protein-coupled receptor 139) | 1 | -0.523 | 0.0688 | -0.515 |
| KLHL35 (kelch like family member 35) | 1 | -0.957 | -1.02 | -1.21 |
| SDK1 (sidekick cell adhesion molecule 1) | 1 | 0.929 | 1.33 | 1.48 |
| HIPK1 (homeodomain interacting protein kinase 1) | 1 | -0.302 | -1.02 | -0.573 |
| BCL2L11 (BCL2 like 11) | 1 | -0.358 | -0.773 | -0.934 |
| CYP3A5 (cytochrome P450 family 3 subfamily A member 5) | 1 | -0.258 | -0.297 | -0.0069 |
| TAAR1 (trace amine associated receptor 1) | 1 | -1.11 | -1.65 | -1.41 |
| AFAP1 (actin filament associated protein 1) | 1 | -0.408 | -0.802 | -1.23 |
| SDC1 (syndecan 1) | 1 | -0.701 | -1.9 | -1.62 |
| SPINK6 (serine peptidase inhibitor Kazal type 6) | 1 | 0.2 | 0.21 | 0.575 |
| RHOC (ras homolog family member C) | 1 | 0.538 | -1.11 | -1.17 |
| LCMT2 (leucine carboxyl methyltransferase 2) | 1 | 0.0929 | 0.657 | 0.515 |
| APOL5 (apolipoprotein L5) | 1 | 0.874 | 1.38 | 0.361 |
| TM9SF3 (transmembrane 9 superfamily member 3) | 1 | 1.32 | 1.42 | 1.31 |
| BCAP31 (B cell receptor associated protein 31) | 1 | -0.221 | -0.956 | -0.683 |
| NOS1 (nitric oxide synthase 1) | 1 | -0.323 | 0.0298 | 0.171 |
| OR7E85P (olfactory receptor family 7 subfamily E member 85 pseudogene) | 1 | 0.612 | 0.389 | 0.819 |
| NLRX1 (NLR family member X1) | 1 | -0.0135 | -0.478 | -0.161 |
| NEU3 (neuraminidase 3) | 1 | 1.52 | 0.85 | 0.458 |
| FAM78A (family with sequence similarity 78 member A) | 1 | -0.292 | 0.0738 | -0.289 |
| ASNSP1 (ASNS pseudogene 1) | 1 | 2.5 (active) | 3.14 | 3.3 |
| SEMA4D (semaphorin 4D) | 1 | 0.53 | 0.12 | 1.14 |
| SEMA4D (semaphorin 4D) | 2 | 0.413 | 0.208 | 0.283 |
| FZR1 (fizzy and cell division cycle 20 related 1) | 1 | -0.296 (active) | -2.94 | -2.18 |
| LOC400933 (retired record) | 1 | -0.948 | -1.14 | -0.703 |
| PROP1 (PROP paired-like homeobox 1) | 1 | -1.38 | -1.55 | -1.18 |
| LOC441547 (retired record) | 1 | -0.859 | -1.04 | -1.32 |
| ST8SIA3 (ST8 alpha-N-acetyl-neuraminide alpha-2,8-sialyltransferase 3) | 1 | 1.94 | 1.52 | 2.07 |
| CDC25C (cell division cycle 25C) | 1 | 0.0458 | 0.276 | 0.151 |
| DCAF8L1 (DDB1 and CUL4 associated factor 8 like 1) | 1 | -0.992 | -1.2 | -0.256 |
| YEATS2 (YEATS domain containing 2) | 1 | -2.08 | -0.0566 | -0.456 |
| RAPGEF6 (Rap guanine nucleotide exchange factor 6) | 1 | 1.72 | 1.34 | 1.97 |
| GFRA4 (GDNF family receptor alpha 4) | 1 | -1.12 | -0.485 | 0.744 |
| ACSS2 (acyl-CoA synthetase short chain family member 2) | 1 | -0.18 | -0.0743 | 0.176 |
| MAT2A (methionine adenosyltransferase 2A) | 1 | 1.24 | -0.705 | -0.395 |
| CCDC39 (coiled-coil domain 39 molecular ruler complex subunit) | 1 | 0.0179 | 0.204 | 0.295 |
| OR5D18 (olfactory receptor family 5 subfamily D member 18) | 1 | 0.909 | 0.175 | -0.535 |
| CTAGE15 (CTAGE family member 15) | 1 | 0.553 | -1.27 | -0.655 |
| MPHOSPH10P1 (MPHOSPH10 pseudogene 1) | 1 | 1.1 | 0.665 | 1.3 |
| APLN (apelin) | 1 | 1.76 | 1.53 | 0.354 |

Records above called active:
| target gene | reagent | robust z-score, replicate 1 | robust z-score, replicate 2 | robust z-score, replicate 3 |
| --- | --- | --- | --- | --- |
| ENO2 (enolase 2) | 1 | 2.47 (active) | 0.978 | 1.96 |
| DNM1P33 (dynamin 1 pseudogene 33) | 1 | -1.98 (active) | -2.1 | -2.2 |
| MRPL3 (mitochondrial ribosomal protein L3) | 1 | -2.14 (active) | -2.59 | -1.64 |
| ASNSP1 (ASNS pseudogene 1) | 1 | 2.5 (active) | 3.14 | 3.3 |
| FZR1 (fizzy and cell division cycle 20 related 1) | 1 | -0.296 (active) | -2.94 | -2.18 |
